These are yes or no findings as the source states them, for the method shown. Some results given as binding are weak or reduced against the parent protein; the word gives no strength.
Tests used:
[1] = target: tau of P301L tau transgenic mice (4R2N human tau mutated at P301L; brain cortex lysates, CSF) (human) (UniProt P10636); assay: Western blot probed with IPN001 of interstitial fluid
[2] = target: tau in iPSC-CN lysates (human) (UniProt P10636); assay: Western blot, iPSC-CN lysates
[3] = target: tau in AD brain lysates (human) (UniProt P10636); assay: Western blot, AD brain lysates
[4] = target: tau in AD brain lysates (human) (UniProt P10636); assay: Western blot probed with the variant
[5] = target: tau in iPSC-CN lysates (human) (UniProt P10636); assay: Western blot probed with the variant
[6] = target: tau of P301L tau transgenic mice (4R2N human tau mutated at P301L; brain cortex lysates, CSF) (human) (UniProt P10636); assay: Western blot probed with the variant
[7] = target: tau of P301L tau transgenic mice (4R2N human tau mutated at P301L; brain cortex lysates, CSF) (human) (UniProt P10636); assay: Western blot, P301L tau mouse brain cortex lysates
[8] = target: full-length phospho-tau (UniProt P10636); assay: sandwich ELISA, antibody coated, detection with biotin-BT2 + biotin-HT7
[9] = target: full-length phospho-tau (UniProt P10636); assay: sandwich ELISA: antibody coated on the well, full-length phospho-tau added at 0-100 ng/ml, detection with biotin-labeled non-competitive anti-tau antibodies (biotin-BT2 + biotin-HT7), streptavidin-HRP, raw OD

Protein sequences, listed by entry. Tags and fused reporters are not part of them. Lines headed by an entry give the natural chain unless they say otherwise; changes in a name come on top. Chains listed by the source or under a name are the forms on record and can include a tag or linker.
UniProt P10636: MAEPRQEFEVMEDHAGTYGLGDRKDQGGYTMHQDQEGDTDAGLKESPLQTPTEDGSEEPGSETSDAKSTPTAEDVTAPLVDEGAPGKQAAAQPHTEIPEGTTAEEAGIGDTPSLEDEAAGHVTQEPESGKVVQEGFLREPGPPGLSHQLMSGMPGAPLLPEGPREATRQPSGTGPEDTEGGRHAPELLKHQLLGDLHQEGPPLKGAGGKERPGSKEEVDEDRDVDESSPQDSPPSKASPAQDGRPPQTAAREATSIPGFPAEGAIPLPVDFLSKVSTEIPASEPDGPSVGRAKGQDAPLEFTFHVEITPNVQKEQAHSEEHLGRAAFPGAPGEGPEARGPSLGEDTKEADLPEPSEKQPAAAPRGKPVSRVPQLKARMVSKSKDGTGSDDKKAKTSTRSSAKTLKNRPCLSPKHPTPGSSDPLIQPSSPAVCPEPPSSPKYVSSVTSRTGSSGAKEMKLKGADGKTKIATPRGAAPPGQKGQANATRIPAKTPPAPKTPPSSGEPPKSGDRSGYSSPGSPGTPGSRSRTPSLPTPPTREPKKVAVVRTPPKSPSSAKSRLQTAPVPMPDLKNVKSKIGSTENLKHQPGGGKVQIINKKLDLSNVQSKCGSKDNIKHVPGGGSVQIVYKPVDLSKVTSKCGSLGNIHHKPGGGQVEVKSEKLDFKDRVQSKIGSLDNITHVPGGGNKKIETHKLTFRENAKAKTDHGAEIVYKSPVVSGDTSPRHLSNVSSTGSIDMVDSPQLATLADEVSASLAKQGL
tau of P301L tau transgenic mice (4R2N human tau mutated at P301L; brain cortex lysates, CSF) (P10636, form named): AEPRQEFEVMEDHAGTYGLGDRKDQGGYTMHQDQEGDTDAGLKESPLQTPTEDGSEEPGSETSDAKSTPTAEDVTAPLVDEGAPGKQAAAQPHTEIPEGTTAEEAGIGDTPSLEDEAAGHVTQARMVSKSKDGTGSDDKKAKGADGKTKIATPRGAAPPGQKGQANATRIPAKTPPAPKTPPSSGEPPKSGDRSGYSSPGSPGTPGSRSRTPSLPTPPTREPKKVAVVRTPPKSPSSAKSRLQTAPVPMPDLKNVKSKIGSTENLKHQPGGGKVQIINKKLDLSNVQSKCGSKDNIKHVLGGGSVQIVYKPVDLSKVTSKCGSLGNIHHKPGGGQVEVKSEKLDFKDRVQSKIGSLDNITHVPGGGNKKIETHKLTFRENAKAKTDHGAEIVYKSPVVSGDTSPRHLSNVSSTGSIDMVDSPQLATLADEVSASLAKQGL
tau in iPSC-CN lysates (P10636, form named): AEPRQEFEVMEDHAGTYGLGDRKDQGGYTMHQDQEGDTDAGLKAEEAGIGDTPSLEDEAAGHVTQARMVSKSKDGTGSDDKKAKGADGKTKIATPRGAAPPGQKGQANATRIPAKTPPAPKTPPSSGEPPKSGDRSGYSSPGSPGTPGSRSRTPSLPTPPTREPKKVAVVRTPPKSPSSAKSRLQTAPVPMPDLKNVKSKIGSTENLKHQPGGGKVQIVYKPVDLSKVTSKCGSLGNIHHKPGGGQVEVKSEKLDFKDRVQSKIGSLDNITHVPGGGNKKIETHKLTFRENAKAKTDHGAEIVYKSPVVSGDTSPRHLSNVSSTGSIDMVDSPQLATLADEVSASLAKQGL
tau in AD brain lysates (P10636, form named): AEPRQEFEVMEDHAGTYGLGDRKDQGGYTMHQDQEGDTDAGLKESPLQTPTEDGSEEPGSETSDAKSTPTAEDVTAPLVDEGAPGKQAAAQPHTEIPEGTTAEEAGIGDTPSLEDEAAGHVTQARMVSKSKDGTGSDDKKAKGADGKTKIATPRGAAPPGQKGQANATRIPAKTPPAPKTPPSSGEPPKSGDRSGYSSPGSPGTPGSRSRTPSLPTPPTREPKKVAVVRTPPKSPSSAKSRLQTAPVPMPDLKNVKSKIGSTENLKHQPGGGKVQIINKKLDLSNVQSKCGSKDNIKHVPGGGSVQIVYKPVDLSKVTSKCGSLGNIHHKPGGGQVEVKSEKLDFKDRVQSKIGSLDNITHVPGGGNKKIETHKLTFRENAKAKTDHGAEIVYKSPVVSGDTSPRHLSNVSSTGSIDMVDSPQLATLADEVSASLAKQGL

Measured: binding

B1: IPN001 (antibody, V domains shown)
VH: EVQLVESGEDLVKPGGSLKLSCVASGFAFSSYGMSWVRQTPDMRLEWVATISSSGSRTYFPDSVKGRLTISRDNDKNILYLQMSSLRSEDTAMYYCTITWDGAMDYWGRGISVTVSS
VL: DVLMTQTPLSLAVNLGDQASLSCRSSQTILHSNGNTYLEWYLQKPGQSPRLLIYKVSKRFSGVPDRFSGSGSGTDFTLKISRVEADDLGIYYCFQGSLVPWAFGGGTKLEIK
binds: [1]

B2: humanized IPN002 variant VH2/Vk1 (antibody, V domains shown)
VH: EVHLVESGGALVKPGGSLRLSCAASGFSFSKYGMSWVRQAPGKGLEWVATISSSGSRTYYPDSVKGRFTISRDNAKNTLYLQMNSLRAEDTAMYYCSISWDGAMDYWGQGTTVTVSS
VL: DVLMTQSPLSLPVTLGQPASISCKSSQSIVHSNGNTYLEWYLQKPGQSPQLLVYKVSNRFSGVPDRFSGSGSGTDFTLKISRVEAEDVGTYYCFQGSLVPWAFGGGTKVEIK
not listed: [1] | [8] | [9]
binds: all other assays above

B3: humanized IPN002 variant VH2/Vk2 (antibody, V domains shown)
VH: EVHLVESGGALVKPGGSLRLSCAASGFSFSKYGMSWVRQAPGKGLEWVATISSSGSRTYYPDSVKGRFTISRDNAKNTLYLQMNSLRAEDTAMYYCSISWDGAMDYWGQGTTVTVSS
VL: DVVMTQSPLSLPVTLGQPASISCKSSQSIVHSNGNTYLEWYLQKPGQSPQLLVYKVSNRFSGVPDRFSGSGSGTDFTLKISRVEAEDVGTYYCFQGSLVPWAFGGGTKVEIK
not listed: [1] | [8] | [9]
binds: all other assays above

B4: humanized IPN002 variant VH2/Vk3 (antibody, V domains shown)
VH: EVHLVESGGALVKPGGSLRLSCAASGFSFSKYGMSWVRQAPGKGLEWVATISSSGSRTYYPDSVKGRFTISRDNAKNTLYLQMNSLRAEDTAMYYCSISWDGAMDYWGQGTTVTVSS
VL: DVVMTQSPLSLPVTLGQPASISCKSSQSIVHSNGNTYLEWYLQKPGQSPQLLVYKVSNRFSGVPDRFSGSGSGTDFTLKISRVEAEDVGVYYCFQGSLVPWAFGGGTKVEIK
not listed: [1] | [8] | [9]
binds: all other assays above

B5: IPN002 (antibody, V domains shown)
VH: EVHLVESGGALVKPGGSLKLSCAASGFSFSKYGMSWVRQTPDKRLEWVATISSSGSRTYYPDSVKGQFTISRDNAKNTLYLQMSSLKSEDTAMYYCSISWDGAMDYWGQGTSVTVSS
VL: DVLMTQTPLSLPVSLGDQASISCKSSQSIVHSNGNTYLEWYLQKPGQSPKLLVYKVSNRFSGVPDRFSGSGSGTDFTLKISRVEAEDLGTYYCFQGSLVPWAFGGGTKLEIK
binds: [8] | [9]

From US20150239963A1
